According to article PMC12136849:
No constants are given. Whether binding was seen depends on the method and setting. Binding seen in cells or lysates may run through a third protein. Some binding calls cover weakened binding; strength is not graded here.

Chains of the proteins cited; added tags and fusions are not shown.
UniProt Q8R4B8: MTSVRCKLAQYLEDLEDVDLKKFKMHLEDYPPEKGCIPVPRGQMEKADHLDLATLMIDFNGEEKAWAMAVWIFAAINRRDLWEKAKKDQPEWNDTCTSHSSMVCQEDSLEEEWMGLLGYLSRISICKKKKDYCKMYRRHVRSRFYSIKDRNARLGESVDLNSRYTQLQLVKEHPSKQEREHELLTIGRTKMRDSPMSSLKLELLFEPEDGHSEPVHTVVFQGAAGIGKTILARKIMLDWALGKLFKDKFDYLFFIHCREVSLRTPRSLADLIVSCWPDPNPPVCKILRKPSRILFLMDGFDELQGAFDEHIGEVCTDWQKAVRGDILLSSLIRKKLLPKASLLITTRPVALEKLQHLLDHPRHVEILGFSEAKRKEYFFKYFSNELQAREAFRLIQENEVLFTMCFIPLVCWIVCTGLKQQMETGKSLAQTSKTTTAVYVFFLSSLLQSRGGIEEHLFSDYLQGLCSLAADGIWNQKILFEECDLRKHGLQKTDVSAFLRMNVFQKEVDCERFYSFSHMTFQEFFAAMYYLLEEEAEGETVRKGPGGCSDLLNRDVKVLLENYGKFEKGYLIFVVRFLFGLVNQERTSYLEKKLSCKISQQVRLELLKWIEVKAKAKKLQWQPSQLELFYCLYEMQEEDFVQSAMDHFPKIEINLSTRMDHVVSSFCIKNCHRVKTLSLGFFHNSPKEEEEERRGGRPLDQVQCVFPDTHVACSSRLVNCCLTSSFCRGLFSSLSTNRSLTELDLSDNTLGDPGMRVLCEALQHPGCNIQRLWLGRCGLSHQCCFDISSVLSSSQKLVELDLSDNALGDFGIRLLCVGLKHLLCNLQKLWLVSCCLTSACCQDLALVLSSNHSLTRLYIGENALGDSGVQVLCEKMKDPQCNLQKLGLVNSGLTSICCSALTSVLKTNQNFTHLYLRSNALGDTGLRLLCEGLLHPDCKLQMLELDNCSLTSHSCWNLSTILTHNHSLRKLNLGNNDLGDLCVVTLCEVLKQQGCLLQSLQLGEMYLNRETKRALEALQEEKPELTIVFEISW

T1: tripartite motif-containing protein 21 (Trim21) (mouse (endogenous in mTECs)) (UniProt Q62191)
T1 sequence: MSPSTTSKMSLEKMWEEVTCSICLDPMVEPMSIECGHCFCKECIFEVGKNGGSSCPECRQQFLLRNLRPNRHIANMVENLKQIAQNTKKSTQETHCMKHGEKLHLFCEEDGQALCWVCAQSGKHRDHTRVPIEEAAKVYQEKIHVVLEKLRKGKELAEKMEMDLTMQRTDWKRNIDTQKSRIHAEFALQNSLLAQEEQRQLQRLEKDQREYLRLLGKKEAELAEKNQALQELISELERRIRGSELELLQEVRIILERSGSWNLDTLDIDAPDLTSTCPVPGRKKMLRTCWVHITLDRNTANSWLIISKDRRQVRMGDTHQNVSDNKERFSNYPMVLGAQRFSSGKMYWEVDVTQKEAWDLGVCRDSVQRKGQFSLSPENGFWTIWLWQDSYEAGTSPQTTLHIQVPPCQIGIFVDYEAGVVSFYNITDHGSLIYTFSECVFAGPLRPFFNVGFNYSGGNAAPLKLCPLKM

B1: gasdermin D (Gsdmd) (protein, UniProt Q9D8T2 1-487)
chain: MPSAFEKVVKNVIKEVSGSRGDLIPVDSLRNSTSFRPYCLLNRKFSSSRFWKPRYSCVNLSIKDILEPSAPEPEPECFGSFKVSDVVDGNIQGRVMLSGMGEGKISGGAAVSDSSSASMNVCILRVTQKTWETMQHERHLQQPENKILQQLRSRGDDLFVVTEVLQTKEEVQITEVHSQEGSGQFTLPGALCLKGEGKGHQSRKKMVTIPAGSILAFRVAQLLIGSKWDILLVSDEKQRTFEPSSGDRKAVGQRHHGLNVLAALCSIGKQLSLLSDGIDEEELIEAADFQGLYAEVKACSSELESLEMELRQQILVNIGKILQDQPSMEALEASLGQGLCSGGQVEPLDGPAGCILECLVLDSGELVPELAAPIFYLLGALAVLSETQQQLLAKALETTVLSKQLELVKHVLEQSTPWQEQSSVSLPTVLLGDCWDEKNPTWVLLEECGLRLQVESPQVHWEPTSLIPTSALYASLFLLSSLGQKPC
B2: Caspase-1 (enzyme, UniProt P29452 1-402)
chain: MADKILRAKRKQFINSVSIGTINGLLDELLEKRVLNQEEMDKIKLANITAMDKARDLCDHVSKKGPQASQIFITYICNEDCYLAGILELQSAPSAETFVATEDSKGGHPSSSETKEEQNKEDGTFPGLTGTLKFCPLEKAQKLWKENPSEIYPIMNTTTRTRLALIICNTEFQHLSPRVGAQVDLREMKLLLEDLGYTVKVKENLTALEMVKEVKEFAACPEHKTSDSTFLVFMSHGIQEGICGTTYSNEVSDILKVDTIFQMMNTLKCPSLKDKPKVIIIQACRGEKQGVVLLKDSVRDSEEDFLTDAIFEDDGIKKAHIEKDFIAFCSSTPDNVSWRHPVRGSLFIESLIKHMKEYAWSCDLEDIFRKVRFSFEQPEFRLQMPTADRVTLTKRFYLFPGH

Molecular target: T1, tripartite motif-containing protein 21 (Trim21) (mouse (endogenous in mTECs))
Experiment: co-IP; NP40 lysates of LPS-induced mTECs, with or without overexpression of Trim21 (or ΔPRY/SPRY); rabbit anti-Trim21 antibody, rotation at 4 °C for 16 h; protein A/G magnetic beads; western blot

Molecule | binding
Nlrp3 (from UniProt Q8R4B8 1-1033) (other; other documents disagree on this pair) | no binding
B1 | binds
B2 | no binding
